PubChem BioAssay AID504764 – Drosophila RNAi Screening Center – 2011

- Aim: 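Genes whose knock-down alters Notch-dependent transcription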 (primary screen)
- Cells: Drosophila Kc167 cells
- Reagent: long dsRNA against Drosophila genes
- Timing: about 5 days (4 days dsRNA, then 24 h after transfection)
- Treatment: transfection of constitutively active membrane-tethered Notch lacking the extracellular domain, read 24 h later
- Detection: 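Firefly luciferase from an E(spl)m3 reporter with active Notch, plus control-promoter and uninduced reporter wells for normalisation; unnormalised counts, duplicate wells a and b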
- Direction: induced reporter light, run 1, well a and induced reporter light, run 1, well b: higher = more light from the Notch target reporter with active Notch; control promoter light, run 1, well a and control promoter light, run 1, well b: higher = more light from the viral control promoter (cell number, transfection, viability); uninduced reporter light, run 1, well a: higher = more light from the Notch target reporter without active Notch
- Active means: 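Wells with low control signal or poorly matching duplicates excluded; duplicates averaged; per source plate, z beyond ±2 for induced/control log2 ratio or beyond ±1.8 for induced/uninduced marks a hit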
- Meaning of the calls: active = modifier hit (raised or lowered Notch signal); inactive = not a hit
The deposit covers about 22,000 reagents; below is an unselected part of those that have a named target and a result. In the full data, 403 (1.9%) are marked active. 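Unnormalised raw counts per well; ratio z-scores behind the hit calls and whether each hit raises or lowers signal are not deposited.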 A number with no mark means an inactive call. The record does not give: the amount of reagent.

CG43078 [DRSC10292] | induced reporter light, run 1, well a: 1.33e5; induced reporter light, run 1, well b: 1.13e5; control promoter light, run 1, well a: 82865; control promoter light, run 1, well b: 45445; uninduced reporter light, run 1, well a: 11455
CG43078 [DRSC10608] | induced reporter light, run 1, well a: 1.27e5; induced reporter light, run 1, well b: 1.32e5; control promoter light, run 1, well a: 80140; control promoter light, run 1, well b: 47545; uninduced reporter light, run 1, well a: 11960
Nepl5 (Neprilysin-like 5) [DRSC03241] | induced reporter light, run 1, well a: 80585; induced reporter light, run 1, well b: 1.05e5; control promoter light, run 1, well a: 78550; control promoter light, run 1, well b: 83270; uninduced reporter light, run 1, well a: 6228
Fgop2 (Fibroblast growth factor receptor 1 oncogene partner 2) [DRSC02016] | induced reporter light, run 1, well a: 86250; induced reporter light, run 1, well b: 92735; control promoter light, run 1, well a: 98105; control promoter light, run 1, well b: 1.07e5; uninduced reporter light, run 1, well a: 8955
muc (midline uncoordinated) [DRSC02832] | induced reporter light, run 1, well a: 73655; induced reporter light, run 1, well b: 71415; control promoter light, run 1, well a: 57145; control promoter light, run 1, well b: 51550; uninduced reporter light, run 1, well a: 4925
mGluR (metabotropic Glutamate Receptor) [DRSC17215] | induced reporter light, run 1, well a: 1.18e5; induced reporter light, run 1, well b: 1.33e5; control promoter light, run 1, well a: 1.79e5; control promoter light, run 1, well b: 2.12e5; uninduced reporter light, run 1, well a: 10735
CG16798 [DRSC02517] | induced reporter light, run 1, well a: 49300; induced reporter light, run 1, well b: 37470; control promoter light, run 1, well a: 43135; control promoter light, run 1, well b: 40085; uninduced reporter light, run 1, well a: 2750
dah (discontinuous actin hexagon) [DRSC20320] | induced reporter light, run 1, well a: 1.17e5; induced reporter light, run 1, well b: 1.12e5; control promoter light, run 1, well a: 1.33e5; control promoter light, run 1, well b: 1.23e5; uninduced reporter light, run 1, well a: 7705
CG15767 [DRSC18073] | induced reporter light, run 1, well a: 1.40e5; induced reporter light, run 1, well b: 1.53e5; control promoter light, run 1, well a: 2.41e5; control promoter light, run 1, well b: 2.84e5; uninduced reporter light, run 1, well a: 11080
CG13088 [DRSC02192] | induced reporter light, run 1, well a: 1.31e5; induced reporter light, run 1, well b: 1.49e5; control promoter light, run 1, well a: 78525; control promoter light, run 1, well b: 1.18e5; uninduced reporter light, run 1, well a: 15840
COX7AL (Cytochrome c oxidase subunit 7A-like) [DRSC15313] | induced reporter light, run 1, well a: 1.08e5; induced reporter light, run 1, well b: 1.02e5; control promoter light, run 1, well a: 85725; control promoter light, run 1, well b: 59485; uninduced reporter light, run 1, well a: 3895
CG10996 [DRSC19363] | induced reporter light, run 1, well a: 1.08e5; induced reporter light, run 1, well b: 98315; control promoter light, run 1, well a: 1.34e5; control promoter light, run 1, well b: 1.26e5; uninduced reporter light, run 1, well a: 15450
Csk (C-terminal Src kinase) [DRSC12861] | induced reporter light, run 1, well a: 1.12e5; induced reporter light, run 1, well b: 1.23e5; control promoter light, run 1, well a: 1.35e5; control promoter light, run 1, well b: 1.22e5; uninduced reporter light, run 1, well a: 9775
Csk (C-terminal Src kinase) [DRSC15223] | induced reporter light, run 1, well a: 26525; induced reporter light, run 1, well b: 21060; control promoter light, run 1, well a: 16460; control promoter light, run 1, well b: 14765; uninduced reporter light, run 1, well a: 5890
Grip71 [DRSC02042] | induced reporter light, run 1, well a: 63740; induced reporter light, run 1, well b: 46265; control promoter light, run 1, well a: 90240; control promoter light, run 1, well b: 90045; uninduced reporter light, run 1, well a: 5000
Papss (PAPS synthetase) [DRSC11246] | induced reporter light, run 1, well a: 1.03e5; induced reporter light, run 1, well b: 95250; control promoter light, run 1, well a: 69945; control promoter light, run 1, well b: 68445; uninduced reporter light, run 1, well a: 6390
CG2691 [DRSC19866] | induced reporter light, run 1, well a: 88105; induced reporter light, run 1, well b: 1.03e5; control promoter light, run 1, well a: 1.52e5; control promoter light, run 1, well b: 1.61e5; uninduced reporter light, run 1, well a: 6250
CG10561 [DRSC02068] | induced reporter light, run 1, well a: 2.10e5; induced reporter light, run 1, well b: 2.04e5; control promoter light, run 1, well a: 1.79e5; control promoter light, run 1, well b: 1.93e5; uninduced reporter light, run 1, well a: 16665
tho2 [DRSC00646] | induced reporter light, run 1, well a: 35775; induced reporter light, run 1, well b: 79835; control promoter light, run 1, well a: 73110; control promoter light, run 1, well b: 1.00e5; uninduced reporter light, run 1, well a: 4655
TwdlX (TweedleX) [DRSC19151] | induced reporter light, run 1, well a: 90290; induced reporter light, run 1, well b: 99115; control promoter light, run 1, well a: 95615; control promoter light, run 1, well b: 1.05e5; uninduced reporter light, run 1, well a: 8330
CG9672 [DRSC20201] | induced reporter light, run 1, well a: 1.42e5; induced reporter light, run 1, well b: 1.46e5; control promoter light, run 1, well a: 1.63e5; control promoter light, run 1, well b: 1.11e5; uninduced reporter light, run 1, well a: 10270
CG5989 [DRSC10565] | induced reporter light, run 1, well a: 1.00e5; induced reporter light, run 1, well b: 1.32e5; control promoter light, run 1, well a: 1.11e5; control promoter light, run 1, well b: 63195; uninduced reporter light, run 1, well a: 12560
hyx (hyrax) [DRSC14462] | induced reporter light, run 1, well a: 44420; induced reporter light, run 1, well b: 45635; control promoter light, run 1, well a: 40885; control promoter light, run 1, well b: 31405; uninduced reporter light, run 1, well a: 4345
CG4679 [DRSC06880] | induced reporter light, run 1, well a: 94845; induced reporter light, run 1, well b: 77270; control promoter light, run 1, well a: 1.12e5; control promoter light, run 1, well b: 88440; uninduced reporter light, run 1, well a: 7270
